For this data set, the system named is NOK (oral human keratinocyte) cell lines. Nature of the data set: Sulphorhodamine B cytotoxicity assay. In kind it is cell-based. On the procedure:
The cytotoxicity of sixteen semisynthetic compounds derived from protocatechuic acid was assessed using a sulphorhodamine B assay in NOK (oral human keratinocyte) cell lines obtained from the American Type Culture Collection (Manassas, VA, USA). The strains were maintained in bottles appropriate for cell culture with keratinocyte serum free medium (Gibco, Life Technologies) and incubated in standard conditions of 37°C and 5% CO2. Cell concentrations ranging from 2.5 to 5.0 × 10^4 cells/mL were used for the formation of cell monolayers. The concentrations of pure substances were kept in contact with the cells for 24 hours. After the incubation period, the cells were treated with the sulphorhodamine B reagent (Sigma-Aldrich, St. Louis, MO, USA) as previously described by Skehan et al., with some modifications.

Regarding `CCCCCOC(=O)c1ccc(O)c(O)c1` [Protocatechuate pentyl, pentyl protocatechuate], the “SI (IC50/MFC)” value by setting is: (NOK IC50 / MFC Tm1) 3.7; (NOK IC50 / MFC Tm2) 7.3; (NOK IC50 / MFC Tm3) 7.3; (NOK IC50 / MFC Tr1) 7.3; (NOK IC50 / MFC Tr2) 7.3; (NOK IC50 / MFC Tr3) 7.3.
Regarding `CCCCCCCCCOC(=O)c1ccc(O)c(O)c1` [Protocatechuate nonyl, nonyl protocatechuate], the “SI (IC50/MFC)” value is, setting by setting: (NOK IC50 / MFC Tm1) 13.2; (NOK IC50 / MFC Tm2) 13.2; (NOK IC50 / MFC Tm3) 13.2; (NOK IC50 / MFC Tr1) 26.7; (NOK IC50 / MFC Tr2) 13.2; (NOK IC50 / MFC Tr3) 13.2.
Regarding `CCCCCCOC(=O)c1ccc(O)c(O)c1` [Protocatechuate hexyl, hexyl protocatechuate], the “SI (IC50/MFC)” value (NOK IC50 / MFC Tm1) is 17.0; the “SI (IC50/MFC)” value (NOK IC50 / MFC Tm2) is recorded as 17.0; the “SI (IC50/MFC)” value (NOK IC50 / MFC Tm3) was determined as 8.5; the “SI (IC50/MFC)” value (NOK IC50 / MFC Tr1) is given as 17.0; the “SI (IC50/MFC)” value (NOK IC50 / MFC Tr2) is given as 17.0; the “SI (IC50/MFC)” value (NOK IC50 / MFC Tr3) is listed as 17.0.
With `CCCCCCCCOC(=O)c1ccc(O)c(O)c1` [Protocatechuate octyl, octyl protocatechuate], the “SI (IC50/MFC)” value (NOK IC50 / MFC Tm1) is given as 13.8; the “SI (IC50/MFC)” value (NOK IC50 / MFC Tm2) turned out to be 27.7; the “SI (IC50/MFC)” value (NOK IC50 / MFC Tm3) was determined as 13.8; the “SI (IC50/MFC)” value (NOK IC50 / MFC Tr1) came to 27.7; the “SI (IC50/MFC)” value (NOK IC50 / MFC Tr2) turned out to be 7.0; the “SI (IC50/MFC)” value (NOK IC50 / MFC Tr3) is recorded as 27.7.
Consider `CCCCCCCOC(=O)c1ccc(O)c(O)c1` [Protocatechuate heptyl, protocatechuate heptyl], for which the “SI (IC50/MFC)” value (NOK IC50 / MFC Tm1) amounted to 20.0; the “SI (IC50/MFC)” value (NOK IC50 / MFC Tm2) came to 80.5; the “SI (IC50/MFC)” value (NOK IC50 / MFC Tm3) was 20.0; the “SI (IC50/MFC)” value (NOK IC50 / MFC Tr1) was 40.0; the “SI (IC50/MFC)” value (NOK IC50 / MFC Tr2) is listed as 40.0; the “SI (IC50/MFC)” value (NOK IC50 / MFC Tr3) came to 40.0.

The values are drawn from PMC4086519, “Anti-Trichophyton Activity of Protocatechuates and Their Synergism with Fluconazole” (Evidence-based Complementary and Alternative Medicine : eCAM, 2014).
